Reference: patent publication US20160304584
Weaker means in comparison with the reference protein, sequence or condition of that experiment. For some assays here: The exact form of at least one protein or probe is not confirmed.

The chains behind the UniProt entries cited, without tags or fusion partners. Residues count along the entry.
UniProt P54841, 211-305 E269R: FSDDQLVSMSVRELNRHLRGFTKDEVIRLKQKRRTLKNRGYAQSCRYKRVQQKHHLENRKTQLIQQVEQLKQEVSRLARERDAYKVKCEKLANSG
UniProt P54841, 211-305: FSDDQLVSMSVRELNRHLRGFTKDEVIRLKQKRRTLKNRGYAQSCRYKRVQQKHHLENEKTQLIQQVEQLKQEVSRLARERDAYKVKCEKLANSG

Experiments:
[1] = molecular target: MafB (E269R) homodimer (UniProt P54841); experiment: EMSA; conditions: detectable only with excessive MafB; purified recombinant protein; label: 32P; variant of T-MARE(alpha)
[2] = molecular target: MafB (wt) homodimer (UniProt P54841); experiment: EMSA; conditions: strong preference of site for heterodimer; purified recombinant protein; label: 32P; variant of T-MARE(alpha)

| Sequence | binding result [1] | binding result [2] |
| --- | --- | --- |
| TCGTCCCTTATGCCTACTAGGCAATTCTC (double strand) [T-MARE(gamma)] | binds more weakly |  |
| TCGTCCCCTCCTATGAGTCAGCAATTCTC (double strand) [T-MARE(beta)] |  | binds more weakly |
